According to the RNAGym collection of RNA variant scans (doi:10.1126/science.aae0568):
Variants at the floor of the assay are shown more often than the library holds them.

B1: tRNA (parent)
chain: GUUCCGUUGGCGUAAUGGUAACGCGUCUCCCUCCUAAGGAGAAGACUGCGGGUUCGAGUCCCGUACGGAACG

Variants of: B1
Assay: yeast fitness relative to wild type (ratio to wild type); higher = fitter; tRNA-Arg(CCU), competitive growth, 37 C, YPD
Procedure, shortened: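 The tRNA-Arg(CCU) gene variants were made by chemical synthesis with a 3% per-site mutation rate at 69 sites and inserted at the native genomic locus of Saccharomyces cerevisiae. After pooling, the strains were competed in YPD at 37°C for 24 hours in six parallel replicates. Gene amplicons from the start population and each end population were read by 100-nucleotide paired-end sequencing, and Darwinian fitness relative to wild type was taken from genotype frequency changes. Genotypes needed ≥ 100 starting reads, and estimates < 0.5 were set to 0.5.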

Yeast fitness, 0.791:
GUUCCGUUGGUGUAAUGGUAACGCGUCUCCGUCCUAAGGAGAAGACUGCGGGUUCGAGUCCCGUACGGAACG

Yeast fitness, 0.65:
GUUCCGUUGGCGAAAUGGUACCGCGUCUCCCUCCUAAGGAGAAGACUGCGGGUUCGAGUCCCGUACGGAACG

Yeast fitness, 0.711:
GUUCCGUUGGUGAAAAGGUAACGCGUCUCCCUCCUAAGGAGAAGACUGCGGGUACGAGUCCCGUACGGAACG

Yeast fitness, 0.703:
GUUCCGUUGGCAUAAUGGUAACGCGUCUCCCUCCUAAGGAGAAGAGUGCGGGUUCGAGUCCCGUACGGAGCG

Yeast fitness, 0.609:
GUUCCGUUGGUGUAAUGGGAACGCGUCUCCCUCCUAAGGAGAAGACUGCGGAUUCGAGUCCCGUACGGAACG

Yeast fitness, 0.59:
GUUCCGUUGGCUUAAUGGUAACGCGUCUCCCUCCUAAGGAGAAGACUGCGGGUCCGAGUCCCGUACGGAACG

Yeast fitness, 0.649:
GUUCCGUUGGUGUAAUGGUAACGGGUCUCCCUCCUAAGGAGAAGACUGCGGGUUCGAGUCCCGUACGGAGCG

Yeast fitness, 0.512:
GUUCCGUUGGGGUAAUGGUAACGCGUCUCCCUCCUAAGGAGAAGACUGCGGGUCCGAGUCCCGUACGGAACG

Yeast fitness, 0.612:
GUUCCGUUGGCAUAAUGGUAACGCGUCUCCCUCCUUAGGAGAAGACUGCGGGUUCGAGUCCCGUACGGAACG

Yeast fitness, ≤ 0.5:
GUUCCGUUGGUGUGAUGGUAACGCGUCUCCCUCCUAAGGAGAAGACUGCGCGUUCGAGUCCCGUACGGUACG
GUUCCGUUGGUGUUAUGGUAACGCGUCUUCCUCCUAAGGAGAAGACUGCGGGUUCGAGUCCCGUACGGAGCG
GUUCCGUUGGUGUAGUGGUAACGCGUCUCCCUCCUAAGGAAAAGACUGCGGGGUCGAGUCCCGUACGGAACG
GUUCCGUUGGUGUAAUGGUCACGCGUCUCCCUCCUAAGGAGAAGACUGCGGGUUCGAGUACCGUACGGAACG
GUUCCGUUGGUGUAAUGGUGACGAGUCUCCCUCCUAAGGAGUAGACUGCGGGUUCGAGUCCCGUACGGAACG
GUUCCGUUGGUGUAAUGGUAACGCGUCUCCCUCCUACGGCGAAGACUGCGGGCUCGAGUCCCGUACGGAACG
GUUCCGUUGGUGUAAUGGUAACGCGUCUCCCUCCUAGGGAGAAGACUGCGGGUUCCAGUCCCGUACGGAACG
GUUCCGUUGGUGUAAUGGUAACGGGUCUCCCUCCUAAGGAGAAGACUGCGGGUUCGGGUCCCGUACGGAACG
GUUCCGUUGGUGUAAUGGUAACGGGUGUCCCUCCUAAGGAGAAGACUGCGGGUUCGAGUCCCGUACGGCACG
GUUCCGUUGGUGUAAUGGUAACGUGUCUCGCUCCUAAGGGCAAGACUGCGGGUUCGAGUCUCGUACGGAACG
GUUCCGUUGGUGUAAUGGUAACGUGUCUCCCUCUUAAGGAGAAGAUUGCGGGUUCGAGUCCCGUACGGAACG
GUUCCGUUGGUGUAAUGGUAACGCGUUUCCCUCCUAAGGAGAAGCCUGCGGGUUCCAGUCCCGUACGGAACG
GUUCCGUUGGUGUAAUGGUAACGCGUUUUCCUCCUAAGGAGAAGACUGGGGGUUCGAGUCCCGUACGGAACG
GUUCCGUUGGUGUAAUGGUAACGCGUUUCCAUCCCAAGGAGAAGACUGCGGGUUCGAGUCCCGUACGGAACG
GUUCCGUUGGUGUAAUGGUAACGCGUCUGCCUCCUAAGGAGAAGACUACGGGUUCGAGUCACGUACGGAACG
GUUCCGUUGGUGUAAUGGUAACGCGUCUUCAUCCUAAGGAGAAGACUGCGGGUUCGAGUCCCGUACGGAACG
GUUCCGUUGGUGUAAUGGUAACGCGUCUCCUUCCUAAGGAGAAGACUGCGGGUUCGCGUCCCGUACGGAACG
GUUCCGUUGGUGUAAUGGUAACGCGUCUCCUUCCUAAGGAGAAGACUGCGGGUUCACGUCCCGUACGGAACG
GUUCCGUUGGUGUAAUGGUAACGCGUCUCCCUUCUAAGGAGAAGACUGCGGGUUCGAGUGCCGUACGGAACG
GUUCCGUUGGUGUAAUGGUAACGCGUCUCCCUCUUAAGGAGAAGACUACGGGUUCAAGUCCCGUACGGAACG
GUUCCGUUGGUGUAAUGGUAACCCGUCUCCCUCCUAAGUAGAAGACUGCGGGUUCGAGUCCCGUACGGAACG
GUUCCGUUGGUGCAAUGGUAACGAGUCUCCCUCCUAAGGAGACGACUGCCGGUUCGAGUGCCGUACGGAACG
GUUCCGUUGGUGUAAAGGUAACGCGUCUGCCUCCUACGGAGUAGACUGCGGGUUCGGGUCCCGUACAGAACG
GUUCCGUUGGUGUAAUGGUAACGCGGCUCCCUCCUAAGGAGAAGACUGCGAGUUCGAGUCCCGUACGGAACG
GUUCCGUUGGUGUAAUGGUAACGCGGCCCCUUCCUAAGGAGAAGACUGAGGGUUCGACUCCUGUACGGAACG
GUUCCGUUGGUGUAAUGGUAACGCGUCGCCCUCCUAAGGAGAAGACUGCGCGUUCGAGUCCCGAAUGGCACG
GUUCCGUUGGUGUAAUGGUAACGCGUCUCCCGCCUAGGGAGAAGGCUGCGGGUUAGAGUCCCGUACGGAACG
GUUCCGUUGGCAUCAUGGUAACGCGUCUCACUCCUAAGGAGAAGACUGCGGCUUCGAGUCCCGUACGGAACG
GUUCCGUUGGCAUCAUGGUAACGCGUCUCCUUCCUAAGGAGAAGACUGCGGGUUCGAGUCCCGUACGGAACG
GUUCCGUUGGCAUAAUGGUCACGCGUCUCCCUCCUAAGGUGAAGACUGCGGGUUCGAGUCACGUACGAAACG
GUUCCGUUGGCAUAAUGGUGACGCGUCUCCCUCCCGGGGAGAAGACUGCGGGUUCGAGUCCCGUACGGAACG
GUUCCGUUGGCAUAAUGGUUACGCGUCUCCCUCCUAAGGAGAAGCCUGCGGGUUCGAGUUUCGUACGGAACG
GUUCCGUUGGCAUAAUGGUAACGCGUCUCCCUCCUACGGGGAAGACUGCGGGUUCGAGUCCCGUACGGAACG
GUUCCGUUGGCAUAAUGGUAACGCGUCUCCCUCCUAGGCAGAAGACUGCGGGUUCGAGUCCAGUACGGAACG
GUUCCGUUGGCAUAAUGGUAAGGCGUCUCCCUCCUAAGGAGAAGCCUGCGGGUUCGUGUCCAGUACGGAACG
GUUCCGUUGGCAUAAUGGUAACGGGUCUCCCUCCUAAGGCGGCGAUUGCGGGUUCGAGUCCCGUACGCUACG
GUUCCGUUGGCAUAAUGGUAACGGGUCUCCCUCCUAAGGCGACGAUUGCGGGUUCGAGUCCCGUACGGAACG
GUUCCGUUGGCAUAAUGGUAACGUGUAUCCCUCCUAAGGAGAAGACUGCGGGUUCAAGUCCCGUACGGAACG
GUUCCGUUGGCAUAAUGGUAACGCGUGUCCCUCCUGAGGAGAAGACUGCGGGUUCGAGUCCCGUACGGAACG
GUUCCGUUGGCAUAAUGGUAACGCGUGUCCCUCCUAAGGAGAAGACUGCGGGUUCGAGUCUCGUCCAAAACG
GUUCCGUUGGCAUAAUGGUAACGCGUUUCCCUCCUAAGCAGAAGACUGCGGGUUCGAGUCCCGUACGGAACG
GUUCCGUUGGCAUAAUGGUAACGCGUCUCCCUACUCAGGAGAAGACUGCGGGUUCGAGUCCCGUCCGGAACG
GUUCCGUUGGCAUAAUGAUAACGCGUCUCCCUCCUAAGGAGAAGACUGAGGGUUCGAGUCCCGUUCGGAACG
GUUCCGUUGGCAUAAUGACAACGCGUCUCCCUCCUAAGGAGAAGACUGCGGGUUUGCCUCCCAUACGGAACG
GUUCCGUUGGCAUAAUGGUAACGCGUCUCCCUCCUAAGGAAAAGACUGCGCGUUCGAGUCCCGUACGGAACG
GUUCCGUUGGCAAGAUGGUAGCGCGUCUCCCUUCUAAGGAGAAGACUGCGGGUUCGAGUCCCGUACGGAACG
GUUCCGUUGGCAUAAUGGAAACGCGUCUCCGUCUUAAGGAGAAGACUGCGGGUUCGGGUCCCGUACGGAACG
GUUCCGUUGGCAUAAUGGCAACGCGUCCCCCUCCUAUGGAGAAGACUGCGGAUUCGAGUCCCGUACGGAACG
GUUCCGUUGGCCUUAUGGUAACGCGUCUCCCUCCUAAGGAGAAGACUGCGGGUUCGAGUCGCGCACGGUACG
GUUCCGUUGGCCUAAUGGUGAUGCGUCUCCCUCUUAAGGAGAAGACUGGGGGUUCGAGUCCCGUACGGAACG
GUUCCGUUGGCCUAAUGGUAGCGCGUUUCCCUACUAAGGAGAAGCCUGCGGGUACGAGUCCCGUACGGAACG
GUUCCGUUGGCCUAAUGGUAACGCGUCUCCCUCCUAAGGAGAUGACUGCGGGUUCGAGUCGCGUAAGGAUCG
GUUCCGUUGGCCUAAUGGUAACGCGUCUACCUCCUAAGGAGAAGUCUGCGGGUUCGAGUCCCGUACGGAACG
GUUCCGUUGGCCUAAUGGUAACGCGUCUUCCUCCUAAGGAGAAGACUGCGAGUUCAAGUCCCCUACGGAUCG
GUUCCGUUGGCCUAAUGGUAACGCGUCUCUCUCCUAAGGAGAAGACUGCGGGUUCGAGUCCCGUAAGGAACG
GUUCCGUUGGCCUAAUGGUAACGCGUCUCCCUCCUAAGGAGAAGAAUGCGGGUUCGAGUCCCGUACGUAACG
GUUCCGUUGGCCUAAUCGUAACGCGUCUCCCUCCUAAGAAGAAGACUGCGGGUUCGAGUCCCGUACGGAACG
GUUCCGUUGGCGAACUGGUAACGCGUCUCCCUCCUAAGGAGAAGGCUGCGGGUUUGAGUCCCGUACGGAACG
GUUCCGUUGGCGAAAUGGUAACGCGUCUCCCUCCUAAGGGGAAGACUGCGGGUUCAUGUCCCGUACGAAACG

Yeast fitness, 0.542:
GUUCCGUUGGCAUAAUGGUAACGCGUCUCCCUCCUAAGGAGAUGCCUGCGGGUUCGAGUCCCGUACCGAACG

Yeast fitness, 0.68:
GUUCCGUUGGUGUAAUGGUAACGCGUCUCCCUCCUAAGCAGAAGACUGCGGGUUCGAGUCCCGUACGGAACG

Yeast fitness, 0.58:
GUUCCGUUGGCCUAAUGGUAACGCGUCUGCCUCCUAAGGAGAAGACUGCGGGUUCGAGUCCCGUACGGAACG

Yeast fitness, 0.668:
GUUCCGUUGGCAUAAUGGUAACGCGUCUCCCUCCUAAGGAGAAGACUGCGGGUUCGUGUCCCGUACGGAACG

Yeast fitness, 0.593:
GUUCCGUUGGUGUAAUGGUAACGCGUCUCCCUCCUAAGGAGAAGACUGCGGAUUCGAGUACCGUACGGAACG

Yeast fitness, 0.603:
GUUCCGUUGGCGAAAUGGUAACGCGUCUCCCUCCUAAGGAGAAGGCUGCGGGUUCGACUCCCGUACGGUUCG

Yeast fitness, 0.554:
GUUCCGUUGGCCUAAUGGUAACGCGUCUCCCUCCUAAGGAGAAGACAGCGGGUUCGAGUCCCGUACGGAGCG
